Source: patent US9828389B2, “Tetrazolinone compounds and their use as pesticides” (SUMITOMO CHEMICAL COMPANY, LIMITED, priority 2012, dated 2017)
Read-outs that look alike come from different tables or passages of the source. Some entries share one result that the patent states for a list of compounds.

Assays:
[1] = system: rice blast fungi (Magnaporthe grisea); type: in vivo; settings: rice (cv; Nipponbare), 6 days in contact with infected seedlings
[2] = system: wheat rust fungi (Puccinia recondita); assay: Wheat rust control test, foliar spray on wheat; type: in vivo; settings: wheat (cv; Shirogane), inoculated after 5 days, observed after 1+8 days
Protocol: The spores of wheat rust fungi (Puccinia recondita) were sprinkling-inoculated. After inoculation, the plants were placed under a dark and humid condition at 23° C. for 1 day and were then cultivated at 20° C. under lighting for 8 days and a lesion area was observed.

SMILES	lesion area compared to the lesion area in untreated plants ([1]; foliar spray 200 ppm)	lesion area compared to the lesion area in untreated plants ([1]; foliar spray 500 ppm)	lesion area compared to the lesion area in untreated plants ([2]; foliar spray 200 ppm)	lesion area compared to the lesion area in untreated plants ([2]; foliar spray 500 ppm)
Cc1cc(-n2nc(C)c(C)c2C)ccc1OCc1c(Br)cccc1-n1nnn(C)c1=O [Present compound 3, 1-{3-bromo-2-[2-methyl-4-(3,4,5-trimethyl-pyrazol-1-yl)-phenoxymethyl]-phenyl}-4-methyl-1,4-dihydrotetrazole-5-one]	≤ 30%	≤ 30%	≤ 30%	–
Cc1cc(-n2nc(C)c(C)c2C)ccc1OCc1c(C)cccc1-n1nnn(C)c1=O [Present compound 4, 1-{3-methyl-2-[2-methyl-4-(3,4,5-trimethyl-pyrazol-1-yl)-phenoxymethyl]-phenyl}-4-methyl-1,4-dihydrotetrazole-5-one]	–	≤ 30%	–	≤ 30%
CCc1cccc(-n2nnn(C)c2=O)c1COc1ccc(-n2nc(C)c(C)c2C)cc1C [Present compound 5, 1-{3-ethyl-2-[2-methyl-4-(3,4,5-trimethyl-pyrazol-1-yl)-phenoxymethyl]-phenyl}-4-methyl-1,4-dihydrotetrazole-5-one]	–	≤ 30%	–	≤ 30%
Cc1cc(-n2nc(C)c(C)c2C)ccc1OCc1c(-n2nnn(C)c2=O)cccc1C(F)(F)F [Present compound 6, 1-{3-trifluoromethyl-2-[2-methyl-4-(3,4,5-trimethyl-pyrazol-1-yl)-phenoxymethyl]-phenyl}-4-methyl-1,4-dihydrotetrazole-5-one]	–	≤ 30%	–	≤ 30%
COc1cccc(-n2nnn(C)c2=O)c1COc1ccc(-n2nc(C)c(C)c2C)cc1C [Present compound 7, 1-{3-methoxy-2-[2-methyl-4-(3,4,5-trimethyl-pyrazol-1-yl)-phenoxymethyl]-phenyl}-4-methyl-1,4-dihydrotetrazole-5-one]	–	≤ 30%	–	≤ 30%
Cc1ccn(-c2ccc(OCc3c(Cl)cccc3-n3nnn(C)c3=O)c(C)c2)n1 [Present compound 13, 1-{3-chloro-2-[2-methyl-4-(3-methyl-pyrazol-1-yl)-phenoxymethyl]-phenyl}-4-methyl-1,4-dihydrotetrazole-5-one]	–	≤ 30%	–	≤ 30%
Cc1cnn(-c2ccc(OCc3c(Cl)cccc3-n3nnn(C)c3=O)c(C)c2)c1 [Present compound 15, 1-{3-chloro-2-[2-methyl-4-(4-methyl-pyrazol-1-yl)-phenoxymethyl]-phenyl}-4-methyl-1,4-dihydrotetrazole-5-one]	–	≤ 30%	–	≤ 30%
Cc1cc(C)n(-c2ccc(OCc3c(C)cccc3-n3nnn(C)c3=O)c(Cl)c2)n1 [Present compound 17, 1-{3-methyl-2-[2-chloro-4-(3,5-dimethyl-pyrazol-1-yl)-phenoxymethyl]-phenyl}-4-methyl-1,4-dihydrotetrazole-5-one]	–	≤ 30%	≤ 30%	–
Cc1ccn(-c2cc(C)c(OCc3c(C)cccc3-n3nnn(C)c3=O)cc2C)n1 [Present compound 30, 1-{3-methyl-2-[2,5-dimethyl-4-(3-methyl-pyrazol-1-yl)-phenoxymethyl]-phenyl}-4-methyl-1,4-dihydrotetrazole-5-one]	–	≤ 30%	–	≤ 30%
Cc1cc(-n2ccc(C(F)(F)F)n2)ccc1OCc1c(C)cccc1-n1nnn(C)c1=O [Present compound 37, 1-{3-methyl-2-[2-methyl-4-(3-trifluoromethyl-pyrazol-1-yl)-phenoxymethyl]-phenyl}-4-methyl-1,4-dihydrotetrazole-5-one]	≤ 30%	–	≤ 30%	–
Cc1cc(-c2ccn(C)n2)ccc1OCc1c(C)cccc1-n1nnn(C)c1=O [Present compound 40, 1-{3-methyl-2-[2-methyl-4-(1-methyl-1H-pyrazol-3-yl)-phenoxymethyl]-phenyl}-4-methyl-1,4-dihydrotetrazole-5-one]	–	≤ 30%	≤ 30%	–
Cc1cc(-n2cc(C)c(C)n2)ccc1OCc1c(C)cccc1-n1nnn(C)c1=O [Present compound 41, 1-{3-methyl-2-[2-methyl-4-(3,4-dimethyl-pyrazol-1-yl)-phenoxymethyl]-phenyl}-4-methyl-1,4-dihydrotetrazole-5-one]	–	≤ 30%	–	≤ 30%
Cc1cccc(-n2nnn(C)c2=O)c1COc1ccc(-n2nc(C(C)C)cc2C(C)C)cc1Cl [Present compound 46, 1-{3-methyl-2-[2-chloro-4-(3,5-diisopropyl-pyrazol-1-yl)-phenoxymethyl]-phenyl}-4-methyl-1,4-dihydrotetrazole-5-one]	≤ 30%	–	–	≤ 30%
Cc1cc(-n2ccc(C(C)(C)C)n2)ccc1OCc1c(C)cccc1-n1nnn(C)c1=O [Present compound 49, 1-{3-methyl-2-[2-methyl-4-(3-tert-butyl-pyrazol-1-yl)-phenoxymethyl]-phenyl}-4-methyl-1,4-dihydrotetrazole-5-one]	≤ 30%	–	≤ 30%	–
CCc1cccc(-n2nnn(C)c2=O)c1COc1ccc(-n2nc(C)cc2C)cc1C [Present compound 50, 1-{3-ethyl-2-[2-methyl-4-(3,5-dimethyl-pyrazol-1-yl)-phenoxymethyl]-phenyl}-4-methyl-1,4-dihydrotetrazole-5-one]	–	≤ 30%	–	≤ 30%
CCc1cccc(-n2nnn(C)c2=O)c1COc1ccc(-n2nc(C)c(C)c2C)cc1Cl [Present compound 54, 1-{3-ethyl-2-[2-chloro-4-(3,4,5-trimethyl-pyrazol-1-yl)-phenoxymethyl]-phenyl}-4-methyl-1,4-dihydrotetrazole-5-one]	≤ 30%	≤ 30%	–	≤ 30%
CCc1cccc(-n2nnn(C)c2=O)c1COc1ccc(-c2ccn(CC)n2)cc1C [Present compound 55, 1-{3-ethyl-2-[2-methyl-4-(1-ethyl-1H-pyrazol-3-yl)-phenoxymethyl]-phenyl}-4-methyl-1,4-dihydrotetrazole-5-one]	–	≤ 30%	–	≤ 30%
CCc1cccc(-n2nnn(C)c2=O)c1COc1ccc(-n2nc(C)c(CC)c2C)cc1Cl [Present compound 56, 1-{3-ethyl-2-[2-chloro-4-(3,5-dimethyl-4-ethyl-pyrazol-1-yl)-phenoxymethyl]-phenyl}-4-methyl-1,4-dihydrotetrazole-5-one]	–	≤ 30%	–	≤ 30%
CCc1cccc(-n2nnn(C)c2=O)c1COc1ccc(-c2ccn(C(C)C)n2)cc1C [Present compound 58, 1-{3-ethyl-2-[2-methyl-4-(1-isopropyl-1H-pyrazol-3-yl)-phenoxymethyl]-phenyl}-4-methyl-1,4-dihydrotetrazole-5-one]	–	≤ 30%	–	≤ 30%
COc1cccc(-n2nnn(C)c2=O)c1COc1ccc(-n2nc(C)cc2C)cc1Cl [Present compound 60, 1-{3-methoxy-2-[2-chloro-4-(3,5-dimethyl-pyrazol-1-yl)-phenoxymethyl]-phenyl}-4-methyl-1,4-dihydrotetrazole-5-one]	–	≤ 30%	≤ 30%	–
COc1cccc(-n2nnn(C)c2=O)c1COc1ccc(-n2nc(C)cc2C)cc1C [Present compound 62, 1-{3-methoxy-2-[2-methyl-4-(3,5-dimethyl-pyrazol-1-yl)-phenoxymethyl]-phenyl}-4-methyl-1,4-dihydrotetrazole-5-one]	–	≤ 30%	–	≤ 30%
COc1cccc(-n2nnn(C)c2=O)c1COc1ccc(-n2ccc(C)n2)cc1C [Present compound 63, 1-{3-methoxy-2-[2-methyl-4-(3-methyl-pyrazol-1-yl)-phenoxymethyl]-phenyl}-4-methyl-1,4-dihydrotetrazole-5-one]	–	≤ 30%	–	≤ 30%
COc1cccc(-n2nnn(C)c2=O)c1COc1ccc(-n2nccc2C)cc1C [Present compound 66, 1-{3-methoxy-2-[2-methyl-4-(5-methyl-pyrazol-1-yl)-phenoxymethyl]-phenyl}-4-methyl-1,4-dihydrotetrazole-5-one]	–	≤ 30%	≤ 30%	–
COc1cccc(-n2nnn(C)c2=O)c1COc1ccc(-n2nc(C)c(C)c2C)cc1Cl [Present compound 72, 1-{3-methoxy-2-[2-chloro-4-(3,4,5-trimethyl-pyrazol-1-yl)-phenoxymethyl]-phenyl}-4-methyl-1,4-dihydrotetrazole-5-one]	–	≤ 30%	–	≤ 30%
COc1cccc(-n2nnn(C)c2=O)c1COc1ccc(-n2ccc(C(F)(F)F)n2)cc1C [Present compound 74, 1-{3-methoxy-2-[2-methyl-4-(3-trifluoromethyl-pyrazol-1-yl)-phenoxymethyl]-phenyl}-4-methyl-1,4-dihydrotetrazole-5-one]	≤ 30%	–	≤ 30%	–
